Laboratory results: article PMC9010760

Protein sequences, listed by entry. Tags and fused reporters are not part of them. Lines headed by an entry give the natural chain unless they say otherwise; changes in a name come on top. Chains listed by the source or under a name are the forms on record and can include a tag or linker.
UniProt Q9HBA0: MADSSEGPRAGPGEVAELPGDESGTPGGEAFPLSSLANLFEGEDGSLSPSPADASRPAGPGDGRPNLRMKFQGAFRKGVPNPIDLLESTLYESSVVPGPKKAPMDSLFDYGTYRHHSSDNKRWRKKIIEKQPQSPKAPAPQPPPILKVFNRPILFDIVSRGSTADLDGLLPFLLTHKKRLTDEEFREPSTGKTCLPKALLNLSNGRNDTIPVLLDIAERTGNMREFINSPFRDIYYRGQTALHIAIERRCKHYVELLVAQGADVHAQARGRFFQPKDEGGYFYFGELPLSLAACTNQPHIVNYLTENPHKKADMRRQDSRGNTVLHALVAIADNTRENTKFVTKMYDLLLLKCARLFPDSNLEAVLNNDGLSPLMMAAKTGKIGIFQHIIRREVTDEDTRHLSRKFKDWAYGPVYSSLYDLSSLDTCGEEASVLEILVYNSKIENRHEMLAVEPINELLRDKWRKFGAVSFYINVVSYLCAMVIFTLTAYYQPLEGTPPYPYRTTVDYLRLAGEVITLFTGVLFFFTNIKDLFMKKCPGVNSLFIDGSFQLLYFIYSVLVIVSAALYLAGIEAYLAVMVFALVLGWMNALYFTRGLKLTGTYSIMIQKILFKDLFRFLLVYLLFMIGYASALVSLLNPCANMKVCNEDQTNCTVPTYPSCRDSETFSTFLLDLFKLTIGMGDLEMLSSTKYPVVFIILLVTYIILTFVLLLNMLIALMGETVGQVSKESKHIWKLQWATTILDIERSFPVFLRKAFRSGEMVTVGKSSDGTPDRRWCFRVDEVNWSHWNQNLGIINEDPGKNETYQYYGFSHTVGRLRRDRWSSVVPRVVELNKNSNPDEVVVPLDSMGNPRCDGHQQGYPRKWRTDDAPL
TRPV4 5K-IDR mutant (Lys 77, 101, 130, 136 and 147 to arginine) (Q9HBA0, form named): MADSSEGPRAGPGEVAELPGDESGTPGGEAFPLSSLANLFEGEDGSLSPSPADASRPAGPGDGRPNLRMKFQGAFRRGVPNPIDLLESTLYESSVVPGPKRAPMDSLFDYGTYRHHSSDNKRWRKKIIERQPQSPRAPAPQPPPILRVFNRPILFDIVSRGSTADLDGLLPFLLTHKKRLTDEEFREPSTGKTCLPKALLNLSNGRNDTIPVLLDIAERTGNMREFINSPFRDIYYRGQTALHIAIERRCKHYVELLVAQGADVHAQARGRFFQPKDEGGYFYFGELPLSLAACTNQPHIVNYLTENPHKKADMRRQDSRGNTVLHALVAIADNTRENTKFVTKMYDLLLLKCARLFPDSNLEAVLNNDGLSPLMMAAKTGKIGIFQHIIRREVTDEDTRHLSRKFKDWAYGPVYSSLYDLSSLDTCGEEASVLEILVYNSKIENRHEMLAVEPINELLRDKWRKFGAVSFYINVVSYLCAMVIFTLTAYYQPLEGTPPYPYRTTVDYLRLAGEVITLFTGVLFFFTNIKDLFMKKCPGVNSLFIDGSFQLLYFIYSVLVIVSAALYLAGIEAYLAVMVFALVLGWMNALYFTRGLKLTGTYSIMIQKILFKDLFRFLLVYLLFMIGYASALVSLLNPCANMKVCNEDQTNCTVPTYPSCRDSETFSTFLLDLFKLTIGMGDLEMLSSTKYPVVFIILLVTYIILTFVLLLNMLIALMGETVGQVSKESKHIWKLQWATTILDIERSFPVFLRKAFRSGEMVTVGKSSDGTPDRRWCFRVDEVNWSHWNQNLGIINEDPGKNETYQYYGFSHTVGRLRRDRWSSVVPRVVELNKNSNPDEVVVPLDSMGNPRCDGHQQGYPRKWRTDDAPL
UniProt P61586: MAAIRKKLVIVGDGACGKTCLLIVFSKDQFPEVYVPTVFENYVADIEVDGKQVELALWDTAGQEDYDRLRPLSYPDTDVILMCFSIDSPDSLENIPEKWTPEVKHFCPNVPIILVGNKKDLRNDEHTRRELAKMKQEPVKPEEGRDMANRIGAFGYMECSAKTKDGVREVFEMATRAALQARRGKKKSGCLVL

Columns and labels:
[1] = target: TRPV4 5K-CTD mutant (all five lysines of the C-terminal IDR to arginine) (human) (UniProt Q9HBA0); experiment: co-IP; co-IP of PACSIN1 or RhoA with WT and K>R mutant TRPV4 (Fig. S5, H-J); cells, antibody and conditions not stated for this experiment in the text shown
[2] = target: C-terminally FLAG-tagged TRPV4 (transient receptor potential vanilloid 4), WT (human) (UniProt Q9HBA0); experiment: co-IP; HEK293T cells cotransfected with TRPV4 (WT or mutant) and Myc-tagged E3 ligase; lysed 24 h post-transfection in RIPA buffer with protease/phosphatase inhibitors and PR-619; supernatant incubated 1 h at 4 °C with Dynabeads Protein G preconjugated with anti-FLAG M2 antibody; washed with 0.2% Tween-20 in PBS; Western blot
[3] = target: TRPV4 5K-CTD mutant (all five lysines of the C-terminal IDR to arginine) (human) (UniProt Q9HBA0); experiment: as above
[4] = target: TRPV4 5K-IDR mutant (Lys 77, 101, 130, 136 and 147 to arginine) (human) (UniProt Q9HBA0); experiment: as above
[5] = target: TRPV4 R269C (neuropathy-causing mutant) (human) (UniProt Q9HBA0); experiment: as above

Substance	binding [1]	binding [2]	binding [3]	binding [4]	binding [5]
RhoA-Myc (from UniProt P61586 1-193)	binds				
Myc-tagged NEDD4 (from UniProt P46934-4) (enzyme)		binds	binds	binds	binds

No constants are given. Whether binding was seen depends on the method and setting. Binding seen in cells or lysates may run through a third protein. Binding calls can cover weak binding; strength is not graded here.
